Primary screen of a compound library

Chains of the proteins cited; added tags and fusions are not shown.
UniProt E9BF75, entry or part of it: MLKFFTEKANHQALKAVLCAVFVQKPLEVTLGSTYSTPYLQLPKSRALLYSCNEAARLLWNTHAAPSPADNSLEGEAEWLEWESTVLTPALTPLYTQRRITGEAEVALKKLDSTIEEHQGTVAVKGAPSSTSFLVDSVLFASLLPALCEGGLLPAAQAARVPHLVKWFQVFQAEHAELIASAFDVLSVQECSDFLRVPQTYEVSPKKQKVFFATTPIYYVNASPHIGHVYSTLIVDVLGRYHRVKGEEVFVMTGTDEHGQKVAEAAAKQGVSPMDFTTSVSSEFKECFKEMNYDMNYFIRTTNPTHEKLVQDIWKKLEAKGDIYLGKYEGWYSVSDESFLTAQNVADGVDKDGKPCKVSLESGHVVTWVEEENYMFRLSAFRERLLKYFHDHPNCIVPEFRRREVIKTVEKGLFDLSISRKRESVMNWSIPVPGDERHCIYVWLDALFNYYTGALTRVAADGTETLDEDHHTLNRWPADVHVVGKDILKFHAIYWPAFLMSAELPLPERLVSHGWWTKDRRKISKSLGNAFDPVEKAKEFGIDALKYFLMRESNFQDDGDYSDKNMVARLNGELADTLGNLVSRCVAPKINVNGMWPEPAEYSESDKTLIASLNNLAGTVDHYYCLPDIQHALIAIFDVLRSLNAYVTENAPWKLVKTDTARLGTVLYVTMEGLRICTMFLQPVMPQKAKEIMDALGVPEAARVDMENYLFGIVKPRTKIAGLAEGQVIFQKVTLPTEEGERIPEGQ

A: 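Primary screen of methionyl-tRNA synthetase; the read-out is not stated. Target: Methionyl-tRNA synthetase (putative), Leishmania donovani (UniProt E9BF75). The test concentration is not given. Values are per cent inhibition. About 68,000 compounds were tested under these conditions; 0.035% (about 24) showed 50% or more at least once.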
B: 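Assay on Mycobacterium tuberculosis, filed only as a heat shock assay from Cornell; the read-out is not stated. The concentration is filed as 10 mM, unlikely as a test dose, so the dose is not known. Higher reads as stronger inhibition (inferred: compounds with an IC50 in retests scored well above the rest). Of about 69,000 compounds tested this way, about 930 (1.4%) reached 50% or more in at least one test.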

Results are percentages, as filed. The controls that fix the scale are not given in the record; negative values are as filed. The compounds are a random part of those screened. A dash means the value is not listed here; it may have been measured.

Compound	A	B
Cc1nnc(Nc2cccc(C3CCN(Cc4ncc[nH]4)CC3)n2)s1	0.6452	20.59
Cc1nccn1-c1cc(CNC(=O)CCNC(=O)C2CCCC2)ccn1	15.75	-21.03
Cc1ccccc1SC1CCN(C(=O)CCCS(N)(=O)=O)CC1	10.73	-5.323
Cc1cc(N2CCN(C(=O)CCc3scnc3C)CC2)cc(C)n1	4.676	-23.54
O=S(=O)(C1CC1)N1CCC2(COCc3cnc(N4CCOCC4)nc32)C1 (centres undefined)	-0.4149	-0.5822
O=C(O)C(F)(F)F.[H][C@]12CCN(C(=O)Cc3cccs3)C[C@@]1([H])OCCN(C(C)C)C2	-	6.859
Cc1cc(NC(=O)Cc2ccccc2O)cnc1N1CCCCC1	11.56	-0.01814
O=C(NCC1COCc2c(-c3ccncc3)nnn2C1)[C@H]1CCCO1.O=C(O)C(F)(F)F (some centres undefined)	-	-0.7961
COCCN1CCN(Cc2ccoc2)Cc2cccnc21	5.333	-45.51
c1ccc(CN2CCC(c3nccnc3-n3ccnc3)CC2)cc1	6.472	-9.036
CCCS(=O)(=O)N1Cc2nccn2CC(Cn2cccn2)C1 (centres undefined)	12.71	-27.23
CNC(=O)C1CCN(c2ncc3c(n2)CCN3c2ccccc2)C1 (centres undefined)	7.843	12.97
CCC(C)CNC(=O)[C@@H]1CCCN1c1nccc(Nc2ccccc2)n1 (some centres undefined)	7.5	25.28
Cc1noc(C)c1C(=O)N1CCCN(Cc2nccn2C(C)C)CC1	9.726	16.32
COCCn1ccnc1CN(Cc1ccccn1)Cc1sccc1C	8.939	88.17
O=C(CC1NC(N2CCc3ccccc32)=NC1=O)Nc1ccc(Cl)cc1 (centres undefined)	11.86	7.366
O=C(Nc1cc(-c2ccncc2)no1)C1CCC1	15.04	3.746
Cc1nn(CCNc2ncnc3c2NC(=O)CN3)c(C)c1Cl	23.8	-14.4
c1cc(-c2nnc([C@H]3CCN(C4CCOCC4)C3)o2)ccn1	-0.339	0.3833
COCCN1CCC2(CC1)CC(NC(=O)C1CC1)c1ccccc1O2.O=C(O)C(F)(F)F (centres undefined)	-	-11.95
Cc1nn(C)c2cn(CC(=O)N3CCN(c4ccccc4)CC3)nc12	11.05	14.35
CN1CCCCC1c1cncc(N2CCC(O)CC2)n1 (centres undefined)	15.22	0.6579
CCc1ccc(C(COC)NC(=O)c2ccc(O)nc2)o1 (centres undefined)	12.2	3.069
COc1cccc(-c2nc(CC(=O)NC3(C)CCS(=O)(=O)C3)cs2)c1 (centres undefined)	11.82	-0.1019
CCC(C)(CC(=O)O)NC(=O)Cc1ccccc1Br (centres undefined)	-12.42	9.397
CCCS(=O)(=O)NC1CCc2c(ccc(=O)n2CC2CC2)C1 (centres undefined)	10.44	-7.289
Cc1cnc(NCCCN2CCc3ccccc32)nc1	8.947	12.52
Cc1cc(C)c(CNC(=O)NCc2cc(F)cc(F)c2)c(=O)[nH]1	23.43	6.223
O=C1CCCCN1Cc1cccc(NC(=O)N2CCSCC2)c1	15.93	-8.963
CN(C)C(CNC(=O)c1ccc(-n2cnnn2)cc1)c1ccccc1Cl (centres undefined)	19.11	-11.35
COc1ccccc1CN(Cc1nc(Cc2ccccc2)no1)C1CC1	19.2	-29.99
Cc1cc(C(N)=O)c2c(Br)cccc2n1	6.479	-19.12
CCn1cc(Cl)c(C(=O)NCCCN(C)C)n1	6.784	-13.96
O=C(O)C(F)(F)F.[H][C@@]12CCCO[C@]1([H])[C@@H](OC)CN2CC1CC1	-	13.63
CC(C)c1nc(N2CCC(N3CCCC(O)C3)CC2)c2cnn(C)c2n1 (centres undefined)	14.72	-1.228
CC(C)NC(=O)C(C(C)C)n1cnc2cc(F)c(F)cc21 (centres undefined)	7.521	-1.301
O=C(CCc1ccc(-n2cnnn2)cc1)Nc1nncs1	17.07	1.441
Cn1cc(N2CC3(CCN(Cc4ccccc4)CC3)OCC2=O)cn1	6.628	-
O=C(O)C(F)(F)F.O=C(O)C(F)(F)F.O=C(O)C(F)(F)F.[H][C@@]12CCN(Cc3ccncc3)C[C@]1([H])[C@@H](CN(C)Cc1ccco1)OC2	-	-3.998
CC(O)CN1CCN(C(=O)c2ccc(Br)o2)CC1 (centres undefined)	7.143	5.836
CS(=O)(=O)NCCNc1ncnc2cccc(F)c12	17.09	14.19
OCCNc1nc(NCc2cccnc2)nc2nccnc12	2.681	-9.86
CCOc1ccccc1CC(=O)N1CCCC(c2ncc[nH]2)C1 (centres undefined)	13.31	10.56
COCCOc1ccc(NC(=O)N2CCCC2c2cccs2)cn1 (centres undefined)	9.278	12.81
CC(C)N(C)C(=O)C1=NOC2(CCN(C(=O)c3ccnnc3)C2)C1 (centres undefined)	17.18	0.7459
CC(C)n1ccnc1CN1CCCN(C(=O)CC2C=CCC2)CC1 (centres undefined)	2.778	-12.61
N#Cc1cccc(C(=O)N2CCN(c3ncccn3)CC2)c1	7.429	-25.97
Cn1ncc2c(=O)[nH]c(CN3CCCC3CCc3ccccc3)nc21 (centres undefined)	14.8	0.1685
O=C(NCCc1nnc2n1CCC2)NCC1(c2cccc(F)c2)CC1	5.634	-16.83
c1ccc(CNC2CCc3ncnn3C2)nc1 (centres undefined)	7.975	45.69
Cc1nc(-c2nc(C(=O)N(C)C)c3ccccn23)cn1C(C)C	7.038	4.298
CCNC(=O)C1CCN(c2cc(-c3ccccc3)nc3ccnn23)C1 (centres undefined)	13.59	-6.57
COc1cc(OC)cc(-c2noc(CC(N)c3ccccc3)n2)c1 (centres undefined)	15.79	19.91
Cc1noc([C@H]2COC[C@H]3CN(C(=O)Cc4ccc(F)cc4)C[C@H]32)n1	9.524	-
C[C@@H]1CN2C[C@H](O)CC2CN1Cc1ccc2nccnc2c1 (some centres undefined)	2.625	3.912
COc1cc(C(=O)N2CCCC2CC(=O)c2cnn(C)c2)ccc1F (centres undefined)	-0.3597	2.518
Cc1cc(CN2Cc3ccccc3CC2c2nnc(C)o2)no1 (centres undefined)	13.26	-14.98
O=C(CN1CCN(CCO)CC1)NCc1ccc(Cl)s1	11.81	-5.6
O=C(O)C(F)(F)F.[H][C@@]12CCN(Cc3ccoc3)C[C@]1([H])O[C@@H](C(=O)N(C)C)C2	-	36.25
COc1ccc(F)cc1C(=O)N1C[C@H]2C[C@H](OC)C[C@H]2C1	14.95	-
Cc1cc(C)cc(CN2CCCC2c2noc(C)n2)c1 (centres undefined)	29.89	49.73
CN(CCN1CCOCC1)S(=O)(=O)CC1CCCC1	4.53	-18.64
Cc1cc(S(=O)(=O)NCc2cccc(C(=O)N3CCCC3)c2)c(C)s1	13.19	-1.724
O=C(N1CCCC1)N1CCC2(CC(=O)N(c3ccc4c(c3)OCO4)C2)C1 (centres undefined)	13.78	-21.8
CCc1ccc(O)c(C(=O)N2CCN(CC(=O)N(C)C)CC2)c1	14.81	-0.9138
CCCN1CCC(N2CCN(c3cc(C)nc(C)c3)CC2)CC1	11.18	-2.617
COCC(=O)N1CCC2(CCC(C(=O)N3CCCC3)O2)CC1 (centres undefined)	1.667	-18.16
CC(C)COCc1cncc2c1CCN(C(=O)c1cscn1)C2	12.32	-
COc1ccc(C2=NOC(CC#N)C2)cc1 (centres undefined)	14.45	-0.3911
CC(=O)N1CCCN(Cc2cc(F)cc(Br)c2)CC1	12.46	-16.62
CNc1nc(C)c(-c2nc(-c3c(C)ncc4c3CCNC4)no2)s1	11.31	16.71
N#Cc1ccc(N2CCC3(CC2)CC(OCc2cccnc2)CO3)cc1 (centres undefined)	11.42	-
CC/C=C(/C)C(=O)N1CSCC1C(=O)N(C)CCc1ccncc1 (centres undefined)	0.7916	4.657
CN(C)c1ccc(CC2CCN(c3cnccn3)CC2)nn1	15.75	19.24

Some entries from above, unchanged:

| Compound | A | B |
|---|---|---|
| `O=C(O)C(F)(F)F.[H][C@]12CCN(C(=O)Cc3cccs3)C[C@@]1([H])OCCN(C(C)C)C2` | - | 6.859 |
| `Cc1nn(C)c2cn(CC(=O)N3CCN(c4ccccc4)CC3)nc12` | 11.05 | 14.35 |
| `CCNC(=O)C1CCN(c2cc(-c3ccccc3)nc3ccnn23)C1` (centres undefined) | 13.59 | -6.57 |
| `Cc1cc(N2CCN(C(=O)CCc3scnc3C)CC2)cc(C)n1` | 4.676 | -23.54 |

The values are deposited in ChEMBL (CHEMBL3988442, “University of Dundee, Small-Polar-MMV Screening Library” (2021)).